PubChem BioAssay AID1259308, NCATS | 2017

Screen: 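Genes whose loss raises luciferase production in HEK293 cells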 (primary screen)
Cells: human HEK293 embryonic kidney cells stably expressing firefly luciferase (HEK-CMV-Luc2-Hygro)
Reagent: single siRNA against human genes, 0.8 pmol siRNA per well
Timing: 72 h
Measurement: 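Reporter luminescence and viable-cell signal on separate replicate plates, given as percent of non-targeting control and median/MAD z-scores, plus per-cell luciferase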
Direction: total luciferase, z-score: higher = more reporter protein produced
Call rule: 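An siRNA counts as active if its total luciferase robust z-score exceeds 3; genes with two or more such siRNAs out of three were retested with fresh siRNAs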
Meaning of the calls: active = raised luciferase; inactive = no rise
Shown is a random part of about 59,000 reagents. About 1,510 of all reagents (2.6%) were called active. 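Calls use total luciferase alone and ignore viability, so some active siRNAs may act by altering cell number.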 Reagents against one gene are numbered here. Further read-outs or replicates are left out here.

MT4 #1 gave total luciferase, z-score -1.1; inactive. MT4 #2 showed total luciferase, z-score 0.94; inactive. MT4 #3 gave total luciferase, z-score -0.169; inactive. Against MYBPHL #1, the values are total luciferase, z-score 0.869; inactive. MYBPHL #2 showed total luciferase, z-score -2.33; inactive. With knock-down of MYBPHL #3 the results were total luciferase, z-score 0.141; inactive.

No new results follow: 2 of the entries above.
MT4 #1 — total luciferase, z-score = -1.1; Call = inactive
MT4 #2 — total luciferase, z-score = 0.94; Call = inactive

The results go on.
For ARHGEF18 #1, the values are total luciferase, z-score -0.729; inactive. Depletion of ARHGEF18 #2 resulted in: total luciferase, z-score 0.645; inactive. Depletion of ARHGEF18 #3 came out at: total luciferase, z-score 0.81; inactive. After knock-down of SPNS3 #1, the screen gave total luciferase, z-score -1.98; inactive. For SPNS3 #2, the entry reads total luciferase, z-score -0.197; inactive. SPNS3 #3 showed total luciferase, z-score -0.725; inactive.
